Test results: PubChem BioAssay AID540256 (National Center for Advancing Translational Sciences (NCATS), 2011)
Several values for one entry are separate records, joined by “and”; a condition that tells them apart may be missing. Equal entries are not always repeated. Among all 300,000 compounds or so, about 3,700 (1.2%) were called active. Inconclusive means that the source gave no clear call. Such entries were picked first, then a sample of the others. The call rests on the fitted dose curve; tested in HEK293 cells. Potencies of inconclusive entries are doubtful fits and often do not repeat.
Potency means the concentration at half of the fitted maximal effect.

Assay: qHTS for Inhibitors of binding or entry into cells for Lassa Virus; further: nearly all actives have a fitted effect of over 50% in size
Details: Lassa virus pseudotype entry inhibition, cell reporter; series mostly up to 37.9 µM
In the case of `CC(=O)c1ccc(NC(=O)c2sc3nc4n(c(=O)c3c2C)CCCCC4)cc1`, the Potency is reported as inconclusive: 35.5 µM [inhibitor, single point].
For `CCCc1ccc(OCc2ccc(C(=O)Nc3ccccc3C(=O)OC)o2)cc1`, the Potency was inconclusive: 35.5 µM [inhibitor, partial curve, poor fit].
With `Cc1ccc(-n2c(C)nc3c(cnn3-c3ccccc3)c2=O)cc1` the Potency was “inactive”.
With `COc1cccc(-n2nc(C(=O)N3CCC4(CC3)OCCO4)c3ccccc3c2=O)c1` the Potency was “inactive”.
With `CCCCC(=O)NCc1ccc(F)cc1` the Potency was inconclusive: 0.708 µM [activator, full curve, poor fit].
In the case of `Cc1cc(C(=O)CSC(C)c2nc3ccccc3c(=O)[nH]2)c(C)n1C` (stereo not drawn), the Potency is reported as “inactive”.
For `CC(C)c1ccc(OCC(=O)N(c2ccccn2)C2CCCCC2)cc1`, the Potency was “inactive”.
In the case of `COc1ccc(/C=N/Nc2nc(=O)[nH]nc2C)cc1OC`, the Potency is reported as inconclusive: 0.13 µM [inhibitor, full curve, poor fit].
With `Cc1ccc(Oc2ccc(N)cc2)cc1` the Potency was “inactive”.
In the case of `O=C(Nc1ccc2c(c1)OCO2)c1cnn2cccnc12`, the Potency is reported as “inactive”.
In the case of `COc1ccc(N2CCN(c3ncccc3C#N)CC2)cc1`, the Potency is reported as inconclusive: 1.26 µM [inhibitor, single point].
With `Cc1ccc(S(=O)(=O)Nc2cc(=O)[nH]c(SCC(=O)Nc3cccc(C(F)(F)F)c3)n2)cc1` the Potency was inconclusive: 0.631 µM [inhibitor, single point].
For `CCOC(=O)N1CCN(C(=O)CCc2c(C)nc3c(c(C)nn3-c3ccc(C)c(C)c3)c2C)CC1`, the Potency was inconclusive: 0.517 µM [inhibitor, partial curve, poor fit].
With `Cc1ccc(OCCN2CCN(c3nc(NCc4ccco4)c4ccccc4n3)CC2)cc1` the Potency was inconclusive: 16.4 µM [inhibitor, single point].
With `CCn1c(-c2nonc2N)nc2cnc(Oc3cccc(NC(=O)c4ccc(N(C)C)cc4)c3)cc21` the Potency was inconclusive: 0.0705 µM [activator, full curve, poor fit].
In the case of `CCOC(=O)c1c(NC(=O)CSc2nc3nc(C)cc(C)n3n2)sc(CC)c1C`, the Potency is reported as inconclusive: 6.31 µM [inhibitor, partial curve, poor fit].
For `Cc1cc2c(cc1C)N(C(=O)CCl)CCN2C(=O)CCl`, the Potency was inconclusive: 35.5 µM [inhibitor, single point].
In the case of `Cc1ccc(-c2nnc(N3CCCCCC3)c3ccccc23)cc1`, the Potency is reported as inconclusive: 3.98 µM [inhibitor, partial curve, poor fit].
With `N#Cc1ccc(OCc2nnc(SCC(=O)c3ccccc3)n2-c2ccccc2)cc1` the Potency was inconclusive: 12.6 µM [inhibitor, partial curve, poor fit].
For `CCOC(=O)NC1(C(F)(F)F)NC(=O)N(c2ccc(F)cc2)C1=O` (stereo not drawn), the Potency was “inactive”.
With `O=C(O)CCC(=O)Nc1ccc(C(=O)OC2CCCCC2)cc1` the Potency was “inactive”.
For `Cc1ccc(Cn2c(=O)n(Cc3ccc(C(=O)NC4CCN(Cc5ccccc5)CC4)cc3)c(=O)c3ccccc32)cc1`, the Potency was inconclusive: 35.5 µM [activator, single point].
With `COc1cc(C2CC(=O)c3cnc(N4CCN(Cc5ccccc5)CC4)nc3C2)cc(OC)c1OC` (stereo not drawn) the Potency was active: 23.1 µM.
In the case of `COc1ccc2c(c1)-c1c(sn(-c3ccccc3)c1=S)C(C)(C)N2`, the Potency is reported as “inactive”.
In the case of `CCOC(=O)C1CCCN(Cc2cc(OC)c(O)c(OC)c2)C1` (stereo not drawn), the Potency is reported as “inactive”.
With `CC1(C)CC(=O)c2cc(NC(=O)c3ccccc3)c(=O)oc2C1` the Potency was inconclusive: 1.26 µM [activator, single point].
With `Cc1nc2ccccc2c(=O)n1NC(=O)Cc1ccc([N+](=O)[O-])cc1` the Potency was “inactive”.
In the case of `O=C(NCCc1ccc(Cl)cc1)c1nnc(Cc2ccc(Cl)cc2Cl)o1`, the Potency is reported as “inactive”.
In the case of `C[C@H](NC(=O)[C@@H]1CSC2c3ccccc3C(=O)N21)C(=O)NCCc1ccc(F)cc1` (stereo partly drawn), the Potency is reported as inconclusive: 15.8 µM [activator, partial curve, poor fit].
In the case of `COc1ccc(C2C(C(=O)OCC(=O)N3CCCCC3)CCC(=O)N2c2ccc(OC)cc2)cc1` (stereo not drawn), the Potency is reported as inconclusive: 6.51 µM [inhibitor, partial curve, poor fit].
In the case of `CC(=O)Nc1ccccc1C(=O)C(=O)Nc1cccc(C(=O)NC2CC2)c1`, the Potency is reported as inconclusive: 2 µM [activator, partial curve, poor fit].
With `C=CCc1c(C)nc(-c2ccccc2)nc1N/N=C(\C)c1ccc(N)cc1` the Potency was inconclusive: 4.47 µM [activator, partial curve, poor fit].
In the case of `COc1ccc(NC(=S)N2CCN(C(c3ccccc3)c3ccccc3)CC2)c(OC)c1`, the Potency is reported as inconclusive: 25.1 µM [inhibitor, single point].
With `N#Cc1ccccc1CSc1nnc(Cc2ccccc2)o1` the Potency was “inactive”.
For `CCOC(=O)C1(Cc2cccc(OC)c2)CCCN(C(=O)c2cc(C)[nH]n2)C1` (stereo not drawn), the Potency was inconclusive: 12.6 µM [activator, single point].
With `COc1ccc(NS(=O)(=O)c2cc(NC(=O)[C@@H](NC(=O)c3ccccc3)C(C)C)ccc2C)cc1` the Potency was inconclusive: 12.6 µM [inhibitor, partial curve, poor fit].
With `Cc1ccccc1S(=O)(=O)NC1OC(=O)C(Oc2ccccc2)=C1Br` (stereo not drawn) the Potency was “inactive”.
With `CCC(C(=O)NC1CCCCC1)N(Cc1cccs1)C(=O)CCC(=O)Nc1cc(C)on1` (stereo not drawn) the Potency was inconclusive: 35.5 µM [inhibitor, single point].
For `S=C(Nc1ccc(Br)cc1)N1CCn2cccc2C1c1cccnc1` (stereo not drawn), the Potency was inconclusive: 10 µM [inhibitor, partial curve, poor fit].
For `COc1ccc(-c2cc(C(=O)NCC3CCCO3)c3ccccc3n2)c(OC)c1` (stereo not drawn), the Potency was “inactive”.
With `COc1ccccc1N1CCN(C(=O)CSc2ncccc2-c2nc3ccccc3[nH]2)CC1` the Potency was “inactive”.
In the case of `Cc1cc([N+](=O)[O-])nn1CC(=O)N1CCOCC1`, the Potency is reported as “inactive”.
In the case of `CC(C)COc1cccc(C(=O)Nc2ccc(N3CCOCC3)cc2N2CCOCC2)c1`, the Potency is reported as “inactive”.
With `O=C(Nc1ccc2ccccc2c1)c1cnccn1` the Potency was inconclusive: 20.6 µM [inhibitor, single point].
In the case of `COc1cc([C@@H]2[C@H]3CNCC=C3C(C#N)=C(N)C2(C#N)C#N)ccc1OC(C)C`, the Potency is reported as “inactive”.
For `FC(F)Oc1ccc(NC(=S)NNc2ccnc3cc(Cl)ccc23)cc1`, the Potency was inconclusive: 35.5 µM [inhibitor, single point].
For `COc1cc(Nc2nn(-c3ccc(OC(F)(F)F)cc3)nc2C(C)=O)cc(OC)c1`, the Potency was “inactive”.
In the case of `Cc1cccc(OC(C)C(=O)OCC(=O)Nc2sccc2C(N)=O)c1` (stereo not drawn), the Potency is reported as inconclusive: 0.891 µM [inhibitor, partial curve, poor fit].
In the case of `CC(C)=C1C2CCC1C1C(=O)N(NC(=O)COc3ccc(C(C)(C)C)cc3)C(=O)C21` (stereo not drawn), the Potency is reported as inconclusive: 17.8 µM [inhibitor, single point].
With `O=C1OC(Cc2ccccn2)C(=O)C1=C1SCCS1` (stereo not drawn) the Potency was “inactive”.
With `Cc1cc(C)c(NC(=O)CN)c(C)c1` the Potency was “inactive”.
With `C/C(=N\NC(=O)C1COc2ccccc2O1)c1cc2ccccc2o1` (stereo not drawn) the Potency was inconclusive: 14.1 µM [inhibitor, single point].
For `COc1ccccc1CNC(=O)COC(=O)c1c[nH]c2ccccc12`, the Potency was inconclusive: 7.08 µM [inhibitor, partial curve, poor fit].
In the case of `O=C(COc1ccc(Cl)cc1Cl)NN=C1c2ccccc2-c2ccccc21`, the Potency is reported as inconclusive: 1.58 µM [inhibitor, partial curve, poor fit].
In the case of `CC(C)Cn1c(CN2CCN(c3cccc(Cl)c3)CC2)nc2c1c(=O)[nH]c(=O)n2C`, the Potency is reported as inconclusive: 7.94 µM [inhibitor, partial curve, poor fit].
For `COc1ccc(N(CC(=O)NCCc2ccc(C)cc2)S(=O)(=O)c2c(C)nn(C)c2C)cc1`, the Potency was “inactive”.
For `CCOc1cc(NC(=S)NCC2CCCO2)c(OCC)cc1NC(=O)c1ccc(OC)cc1` (stereo not drawn), the Potency was inconclusive: 13 µM [inhibitor, partial curve].
In the case of `COc1ccc(C(CC(=O)N2CCCCC2)C(C)C)cc1` (stereo not drawn), the Potency is reported as inconclusive: 1 µM [inhibitor, full curve, poor fit].
With `CN(C)C(CNC(=O)c1cccc(S(=O)(=O)N2CC3(C)CC2CC(C)(C)C3)c1)c1ccco1` (stereo not drawn) the Potency was “inactive”.
For `N=C(N)c1ccc(OCCCCCOc2ccc(C(=N)N)cc2)cc1` (tested in a mixture with another compound), the Potency was inconclusive: 32.6 µM [inhibitor, single point].
For `CCSc1nnc(NC(=O)c2ccccc2)s1`, the Potency was “inactive and inconclusive: 1.26 µM [activator, single point]”.
In the case of `COc1cc(NC(=O)c2ccc(-c3nc(CSc4ccccc4)c(C)o3)cc2)cc(OC)c1`, the Potency is reported as inconclusive: 5.62 µM [inhibitor, single point].
With `CCOC(=O)/C(=C\c1ccc(N2CCC(c3ccccc3)=N2)cc1)C(C)=O` the Potency was active: 7.94 µM.
For `COc1cc(NC(=O)c2ccccc2F)ccc1NC(=O)c1cc2ccccc2o1`, the Potency was inconclusive: 6.31 µM [inhibitor, single point].
With `CCCCc1nnc(NC(=O)c2ccc(OCc3c(C)noc3C)cc2)s1` the Potency was inconclusive: 12.6 µM [inhibitor, partial curve, poor fit].
In the case of `Nc1nc(SCc2ccccc2)ns1`, the Potency is reported as inconclusive: 2.51 µM [activator, single point].
In the case of `CCC(=O)Nc1cc(-c2cn3cccnc3n2)ccc1OC`, the Potency is reported as “inactive”.
With `CCN(CC)S(=O)(=O)c1ccc(Cl)c(NC(=O)c2ccc(C#N)cc2)c1` the Potency was inconclusive: 35.5 µM [inhibitor, partial curve, poor fit].
